Experimental data as given in article PMC11732235.
Construct, isoform or probe ends are uncertain for at least one entry. Results from cells or extracts need not show a direct contact.

Protein sequences, listed by entry. Tags and fused reporters are not part of them.
UniProt O89090, whole entry: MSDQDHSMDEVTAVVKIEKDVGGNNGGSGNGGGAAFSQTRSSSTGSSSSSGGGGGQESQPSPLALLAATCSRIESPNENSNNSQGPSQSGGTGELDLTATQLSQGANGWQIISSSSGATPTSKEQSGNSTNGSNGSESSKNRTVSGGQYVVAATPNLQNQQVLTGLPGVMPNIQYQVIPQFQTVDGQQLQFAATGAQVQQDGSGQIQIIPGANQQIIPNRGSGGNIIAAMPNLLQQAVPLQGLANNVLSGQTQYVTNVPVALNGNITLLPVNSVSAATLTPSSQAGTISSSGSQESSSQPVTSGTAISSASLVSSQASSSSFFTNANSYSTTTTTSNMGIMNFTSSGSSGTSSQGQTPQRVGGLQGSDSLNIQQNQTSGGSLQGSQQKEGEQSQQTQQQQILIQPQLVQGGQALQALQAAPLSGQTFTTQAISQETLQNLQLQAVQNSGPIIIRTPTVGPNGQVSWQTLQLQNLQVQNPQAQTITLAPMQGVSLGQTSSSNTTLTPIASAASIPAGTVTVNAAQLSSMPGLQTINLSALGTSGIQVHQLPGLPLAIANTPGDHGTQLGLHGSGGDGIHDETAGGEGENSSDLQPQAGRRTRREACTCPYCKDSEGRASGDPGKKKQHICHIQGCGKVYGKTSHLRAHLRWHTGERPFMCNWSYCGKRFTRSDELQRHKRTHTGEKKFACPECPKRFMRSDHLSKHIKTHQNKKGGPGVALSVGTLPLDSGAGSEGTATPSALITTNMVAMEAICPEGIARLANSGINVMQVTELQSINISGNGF

Target: Sp1 (UniProt O89090)
Experiment: EMSA supershift
Details: nuclear extract of Ang II-treated VSMCs, poly(dI-dC), anti-Sp1 antibody; Beyotime EMSA/Gel-Shift binding buffer (from 5x) with poly(dI-dC), 20 min, room temperature; 6% PAGE in 0.5x TBE; protein in an extract; label: biotin

GGGGAGGAGAGGGGCGGGTCGGACCT (double strand) [MMP2 promoter Sp1 probe]
binding result: binds
